The text below walks through data of doi:10.1101/2021.11.10.468008.

Chains of the proteins cited; added tags and fusions are not shown.
UniProt Q5U249: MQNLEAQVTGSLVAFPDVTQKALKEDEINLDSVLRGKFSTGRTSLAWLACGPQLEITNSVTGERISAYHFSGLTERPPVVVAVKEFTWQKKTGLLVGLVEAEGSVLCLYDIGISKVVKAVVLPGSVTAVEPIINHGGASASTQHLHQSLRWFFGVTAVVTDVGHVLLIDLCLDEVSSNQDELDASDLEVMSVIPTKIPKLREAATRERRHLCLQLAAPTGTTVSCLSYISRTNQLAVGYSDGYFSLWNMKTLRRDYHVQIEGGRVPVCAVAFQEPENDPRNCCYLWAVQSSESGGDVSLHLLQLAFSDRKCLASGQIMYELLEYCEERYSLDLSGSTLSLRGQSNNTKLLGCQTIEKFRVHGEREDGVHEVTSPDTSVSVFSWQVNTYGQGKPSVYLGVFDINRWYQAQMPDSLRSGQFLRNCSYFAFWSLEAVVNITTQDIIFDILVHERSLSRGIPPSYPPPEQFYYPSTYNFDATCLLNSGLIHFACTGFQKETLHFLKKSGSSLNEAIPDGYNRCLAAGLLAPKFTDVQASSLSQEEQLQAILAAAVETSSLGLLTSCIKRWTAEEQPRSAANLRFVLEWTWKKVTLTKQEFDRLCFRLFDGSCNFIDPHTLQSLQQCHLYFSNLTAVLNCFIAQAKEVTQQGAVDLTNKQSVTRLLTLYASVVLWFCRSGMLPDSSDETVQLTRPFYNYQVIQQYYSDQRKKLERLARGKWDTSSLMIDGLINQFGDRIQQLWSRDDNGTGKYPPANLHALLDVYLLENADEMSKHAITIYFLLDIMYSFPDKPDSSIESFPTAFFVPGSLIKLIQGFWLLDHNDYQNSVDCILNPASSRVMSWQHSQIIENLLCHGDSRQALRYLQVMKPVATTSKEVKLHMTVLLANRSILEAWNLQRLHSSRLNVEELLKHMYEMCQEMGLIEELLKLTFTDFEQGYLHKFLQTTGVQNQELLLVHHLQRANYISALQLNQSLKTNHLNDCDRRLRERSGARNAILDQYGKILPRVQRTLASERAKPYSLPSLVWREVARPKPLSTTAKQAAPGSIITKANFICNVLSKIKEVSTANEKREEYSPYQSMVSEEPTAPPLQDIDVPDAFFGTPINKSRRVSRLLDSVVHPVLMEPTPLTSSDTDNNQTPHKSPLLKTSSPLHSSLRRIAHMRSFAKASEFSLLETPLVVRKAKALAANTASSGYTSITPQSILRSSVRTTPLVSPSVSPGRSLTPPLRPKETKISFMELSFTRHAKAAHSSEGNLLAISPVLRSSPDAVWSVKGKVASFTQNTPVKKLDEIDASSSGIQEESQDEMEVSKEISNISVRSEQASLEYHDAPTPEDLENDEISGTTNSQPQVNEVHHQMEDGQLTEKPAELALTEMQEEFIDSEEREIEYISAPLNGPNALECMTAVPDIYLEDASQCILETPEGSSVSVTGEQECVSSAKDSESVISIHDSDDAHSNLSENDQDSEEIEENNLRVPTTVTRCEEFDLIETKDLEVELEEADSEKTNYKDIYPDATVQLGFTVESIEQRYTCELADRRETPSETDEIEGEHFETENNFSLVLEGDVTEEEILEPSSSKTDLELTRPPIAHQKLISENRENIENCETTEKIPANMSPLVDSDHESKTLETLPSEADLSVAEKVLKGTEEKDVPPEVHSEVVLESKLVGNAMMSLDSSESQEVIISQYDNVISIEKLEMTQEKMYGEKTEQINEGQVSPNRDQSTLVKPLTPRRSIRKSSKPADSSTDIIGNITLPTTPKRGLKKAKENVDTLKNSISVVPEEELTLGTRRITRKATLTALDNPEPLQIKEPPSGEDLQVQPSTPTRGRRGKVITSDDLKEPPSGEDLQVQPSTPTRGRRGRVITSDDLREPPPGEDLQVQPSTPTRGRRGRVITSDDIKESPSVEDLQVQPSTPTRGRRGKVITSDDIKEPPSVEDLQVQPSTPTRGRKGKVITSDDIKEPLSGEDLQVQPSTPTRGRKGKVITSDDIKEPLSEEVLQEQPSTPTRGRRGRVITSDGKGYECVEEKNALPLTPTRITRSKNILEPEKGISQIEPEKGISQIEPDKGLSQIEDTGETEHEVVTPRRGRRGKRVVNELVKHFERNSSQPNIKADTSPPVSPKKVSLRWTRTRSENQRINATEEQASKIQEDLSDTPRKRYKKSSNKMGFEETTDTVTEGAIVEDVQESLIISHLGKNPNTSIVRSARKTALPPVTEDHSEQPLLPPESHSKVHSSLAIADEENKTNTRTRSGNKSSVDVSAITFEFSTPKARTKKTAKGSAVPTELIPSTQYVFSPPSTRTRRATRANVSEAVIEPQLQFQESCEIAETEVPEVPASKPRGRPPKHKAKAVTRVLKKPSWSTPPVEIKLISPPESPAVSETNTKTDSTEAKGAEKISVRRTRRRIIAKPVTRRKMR

This test concerns the target T1, Nup85 (X. laevis (endogenous in oocytes)) (UniProt Q68FJ0).
T1 sequence: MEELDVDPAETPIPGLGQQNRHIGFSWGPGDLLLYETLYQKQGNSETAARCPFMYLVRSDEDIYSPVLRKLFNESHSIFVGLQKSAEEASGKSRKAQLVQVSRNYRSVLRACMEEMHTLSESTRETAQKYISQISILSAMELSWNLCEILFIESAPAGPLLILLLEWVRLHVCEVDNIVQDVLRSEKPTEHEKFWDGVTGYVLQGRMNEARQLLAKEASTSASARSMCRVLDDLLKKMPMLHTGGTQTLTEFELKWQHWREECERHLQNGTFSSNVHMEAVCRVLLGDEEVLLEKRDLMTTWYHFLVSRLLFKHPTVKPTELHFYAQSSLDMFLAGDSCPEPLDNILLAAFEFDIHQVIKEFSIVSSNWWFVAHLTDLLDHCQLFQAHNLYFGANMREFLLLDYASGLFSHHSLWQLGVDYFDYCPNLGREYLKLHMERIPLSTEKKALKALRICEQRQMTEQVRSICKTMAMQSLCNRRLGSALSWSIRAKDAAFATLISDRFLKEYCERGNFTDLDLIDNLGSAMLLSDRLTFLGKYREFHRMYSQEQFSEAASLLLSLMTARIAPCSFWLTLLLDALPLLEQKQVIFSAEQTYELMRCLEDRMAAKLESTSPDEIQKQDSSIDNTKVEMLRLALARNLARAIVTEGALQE
Briefly: cryo-EM structure.

No constants are given. Whether binding was seen depends on the method and setting. Some entries that bind do so weakly or less than the wild type.

For the substance “ELYS (embryonic large molecule derived from the yolk sac) (from UniProt Q5U249 1-2408)”, the binding entry is given as “binds”.
